Data as given in article PMC13483431, “Structure and mechanism of the HSV-1 origin-binding protein UL9” (Journal of Virology, 2025).
These are yes or no findings as the source states them, for the method shown.

Sequences of proteins named here, by UniProt entry; tags and fusion partners are left off. Residues count along the entry.
UniProt P10193, residues 536-851: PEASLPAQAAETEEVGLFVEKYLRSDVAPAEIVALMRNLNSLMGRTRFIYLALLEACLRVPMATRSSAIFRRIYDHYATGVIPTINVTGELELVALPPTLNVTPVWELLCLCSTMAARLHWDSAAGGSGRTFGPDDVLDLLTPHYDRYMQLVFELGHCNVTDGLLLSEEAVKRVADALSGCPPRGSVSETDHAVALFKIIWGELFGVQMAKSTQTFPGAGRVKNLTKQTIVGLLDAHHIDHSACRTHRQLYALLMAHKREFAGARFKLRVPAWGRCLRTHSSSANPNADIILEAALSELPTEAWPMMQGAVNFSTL

Molecular target: His-tagged UL9 C-terminal domain (residues 536-851) (HSV-1) (UniProt P10193)
Test: SEC; purified UL9^CTD; Superdex 75 Increase 10/300 GL in Gel Filtration Buffer (20 mM HEPES, 300 mM NaCl, 1 mM DTT, pH 7.0); both purified

For “His-tagged UL9 C-terminal domain (residues 536-851) (from UniProt P10193 536-851) (domain or fragment)”, the binding was “no binding”.
